Values of other authors as cited in US8440417B2, “Method for assaying compounds or agents for ability to displace potent ligands of hematopoietic prostaglandin D synthase” (Cayman Chemical Company, Incorporated, priority 2008, dated 2013).
At least one compound was matched to its structure with a doubt left.

Test system: PGD2 levels in guinea pig lung tissues
Settings: chronic treatment; Matsushita et al. 1998; cited from earlier work

COc1ccc(/C=C/C(=O)Nc2ccccc2C(=O)O)cc1OC [Tranilast]
PGD2 levels in guinea pig lung tissues: reduce PGD2 levels
